Measurements published in EP0076676B1, “Process for using endorphins as antitumour agents” (TNI PHARMACEUTICALS, INC., priority 1981, dated 1986).
Several values for one entry are separate records, joined by “and”; a condition that tells them apart may be missing. Identical values can stand only once. Not every detail of the peptide structures is certain; ends, links or a residue may be inferred.

Tests used:
[1] = tested on: phenylalanyl-t RNA synthetase; settings: observed by Laidow et al, J.B.C. 255 (1980); cited from earlier work
[2] = tested on: L1210 (leukemia) tumor cells; test: Survival of BDF1 mice inoculated with L1210 (leukemia) tumor cells, with rechallenge of survivors; type: in vivo, BDF1 female mouse strain; settings: for median day of death (day by which half of the mice died): 30 mice per treated group, controls about fourteenth day (Table IV); for survival times compared with controls: mice inoculated with 1x10^4 cells, ten mice per group (Table I)
[3] = 1x10^4 tumor cells, 30 mg/kg s.c. daily
[4] = mice inoculated with 1x10^2 cells, 10 mg/kg s.c. daily, ten mice per group (Table III), controls 20 days
[5] = mice inoculated with 1x10^3 cells, 10 mg/kg s.c. daily, ten mice per group (Table II), controls 16 days

Row | SMILES | inhibition of phenylalanyl-t RNA synthetase [1] | surviving mice from experiment three ([2]; 1x10^2 cells, 10 mg/kg daily, ten mice per group) | median day of death (day by which half of the mice died) [2, 3] | mice surviving until day 64 ([2]; after rechallenge on day 37 with 1x10^4 cells, no medication after day 36) | survival time [2, 4] [days] | survival time [2, 5] [days] | survival times compared with controls ([2]; 10 mg/kg s.c. daily) | day by which all six mice died after second rechallenge ([2]; rechallenged on day 64 with 1x10^6 tumor cells) [days] | mice that died after rechallenge (death on day 52) ([2]; seven survivors of experiment three, medication 10 mg/kg i.p. until day 36, rechallenged on day 37 with 1x10^4 cells) | mice surviving at day 21 ([2]; 1x10^4 tumor cells, 30 mg/kg s.c. daily, 30 mice treated, 30 mg/kg) | mice expired between days 14-20 ([2]; third experiment of Example I: 1x10^2 cells, 10 mg/kg s.c. daily, ten mice)
1 | CC(C)C[C@H](NC(=O)[C@H](Cc1ccccc1)NC(=O)CNC(=O)CNC(=O)[C@@H](N)Cc1ccc(O)cc1)C(=O)O [leucine-enkephalin] | inhibit | seven | about sixteen | six | > 20 | 18 | no differences in survival times | ≤ 70 | One of the seven |  | 
2 | CSCC[C@H](NC(=O)[C@H](Cc1ccccc1)NC(=O)CNC(=O)CNC(=O)[C@@H](N)Cc1ccc(O)cc1)C(=O)O [methionine-enkephalin] | inhibit |  | seventeenth |  | 20 | 18 | no differences in survival times |  |  | eleven out of the thirty and 11 of 30 | 9 out of 10
